Data as given in patent publication EP3575401A1.
These are yes or no findings as the source states them, for the method shown. Binding seen in cells or lysates may run through a third protein. Some binding calls cover weakened binding; strength is not graded here.

Sequences of proteins named here, by UniProt entry; tags and fusion partners are left off.
UniProt P29341: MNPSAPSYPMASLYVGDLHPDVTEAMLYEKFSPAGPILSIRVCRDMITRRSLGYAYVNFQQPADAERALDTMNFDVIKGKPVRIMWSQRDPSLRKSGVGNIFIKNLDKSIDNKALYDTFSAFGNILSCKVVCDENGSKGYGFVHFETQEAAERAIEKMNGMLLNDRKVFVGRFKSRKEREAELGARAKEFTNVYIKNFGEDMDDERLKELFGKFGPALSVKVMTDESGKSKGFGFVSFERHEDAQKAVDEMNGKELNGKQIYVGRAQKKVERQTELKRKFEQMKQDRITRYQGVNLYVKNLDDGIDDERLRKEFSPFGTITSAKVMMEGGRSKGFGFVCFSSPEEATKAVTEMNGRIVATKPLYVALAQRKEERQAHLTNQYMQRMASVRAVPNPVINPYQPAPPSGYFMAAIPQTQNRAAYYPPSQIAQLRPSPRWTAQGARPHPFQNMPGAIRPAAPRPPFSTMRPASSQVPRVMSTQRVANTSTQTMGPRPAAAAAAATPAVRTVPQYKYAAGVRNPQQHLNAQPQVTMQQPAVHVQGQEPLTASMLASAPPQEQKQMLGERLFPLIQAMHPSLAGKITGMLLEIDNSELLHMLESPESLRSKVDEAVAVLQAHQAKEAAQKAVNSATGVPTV
UniProt Q80U58: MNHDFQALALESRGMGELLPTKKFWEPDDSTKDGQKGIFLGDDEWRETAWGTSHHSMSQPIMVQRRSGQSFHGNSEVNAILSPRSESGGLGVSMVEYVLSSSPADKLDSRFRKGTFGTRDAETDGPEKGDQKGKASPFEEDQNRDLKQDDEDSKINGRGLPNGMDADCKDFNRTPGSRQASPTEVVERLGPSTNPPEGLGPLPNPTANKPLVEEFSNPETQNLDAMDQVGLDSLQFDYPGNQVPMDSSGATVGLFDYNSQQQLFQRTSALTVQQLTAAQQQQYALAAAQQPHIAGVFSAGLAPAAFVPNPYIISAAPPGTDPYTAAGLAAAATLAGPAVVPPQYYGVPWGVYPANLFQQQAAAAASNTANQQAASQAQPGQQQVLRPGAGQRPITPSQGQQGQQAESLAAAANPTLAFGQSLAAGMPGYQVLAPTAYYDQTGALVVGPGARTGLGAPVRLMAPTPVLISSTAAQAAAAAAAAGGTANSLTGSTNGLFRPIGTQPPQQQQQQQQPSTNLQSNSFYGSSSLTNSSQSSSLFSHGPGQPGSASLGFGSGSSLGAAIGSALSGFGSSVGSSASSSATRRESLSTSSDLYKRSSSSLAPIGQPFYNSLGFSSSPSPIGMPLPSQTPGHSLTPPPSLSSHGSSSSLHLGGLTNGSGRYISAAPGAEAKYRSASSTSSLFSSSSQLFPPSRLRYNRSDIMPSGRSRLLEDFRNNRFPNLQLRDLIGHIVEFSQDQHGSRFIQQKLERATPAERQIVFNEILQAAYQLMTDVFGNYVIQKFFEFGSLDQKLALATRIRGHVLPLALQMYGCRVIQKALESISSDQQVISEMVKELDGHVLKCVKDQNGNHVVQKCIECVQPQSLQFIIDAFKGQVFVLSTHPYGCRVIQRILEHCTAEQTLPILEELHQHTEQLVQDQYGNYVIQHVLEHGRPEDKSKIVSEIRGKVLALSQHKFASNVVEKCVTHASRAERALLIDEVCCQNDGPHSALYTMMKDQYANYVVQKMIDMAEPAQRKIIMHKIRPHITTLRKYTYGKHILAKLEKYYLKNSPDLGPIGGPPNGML

Experiments:
[1] = molecular target: PABPC1, stress granule (SG) protein, endogenous, from aged mouse brain (mouse) (UniProt P29341); assay: co-immunoprecipitation (anti-PUM2 against control IgG) from pooled fractions 4-7 of old mouse brain, western blot; legend of Figure 7B
[2] = molecular target: PABPC1, stress granule (SG) protein, endogenous, from aged mouse brain (mouse) (UniProt P29341); assay: co-immunoprecipitation of endogenous PUM2 from heavy RNP fractions 4-7 of aged mouse brain, western blot

binding [1]: binds
binding [2]: binds
Substance: RNA-binding protein PUM2 (Pumilio2), endogenous, from aged mouse brain (from UniProt Q80U58 1-1066)
